{"sequences": {"note": "Chains of the proteins cited; added tags and fusions are not shown. Lines headed by an entry give the natural chain unless they say otherwise; changes in a name come on top. Residues count along the entry.", "UniProt P35637": "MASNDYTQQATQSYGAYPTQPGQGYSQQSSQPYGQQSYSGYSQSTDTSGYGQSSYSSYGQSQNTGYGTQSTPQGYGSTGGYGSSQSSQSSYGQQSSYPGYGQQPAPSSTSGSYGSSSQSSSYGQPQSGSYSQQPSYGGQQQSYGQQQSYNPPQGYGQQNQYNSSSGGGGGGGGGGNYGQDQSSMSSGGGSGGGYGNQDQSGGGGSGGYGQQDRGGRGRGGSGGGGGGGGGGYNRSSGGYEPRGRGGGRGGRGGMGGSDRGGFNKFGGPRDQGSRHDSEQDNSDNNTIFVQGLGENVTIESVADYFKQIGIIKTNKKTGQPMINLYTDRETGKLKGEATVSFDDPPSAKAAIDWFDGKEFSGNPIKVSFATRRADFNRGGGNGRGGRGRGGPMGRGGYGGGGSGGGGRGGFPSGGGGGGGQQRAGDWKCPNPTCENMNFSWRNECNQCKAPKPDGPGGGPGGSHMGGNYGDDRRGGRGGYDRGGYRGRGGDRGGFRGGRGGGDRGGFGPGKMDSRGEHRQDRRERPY", "GST-FUS aa465-526": "residues 465-526 of P35637", "UniProt P18887": "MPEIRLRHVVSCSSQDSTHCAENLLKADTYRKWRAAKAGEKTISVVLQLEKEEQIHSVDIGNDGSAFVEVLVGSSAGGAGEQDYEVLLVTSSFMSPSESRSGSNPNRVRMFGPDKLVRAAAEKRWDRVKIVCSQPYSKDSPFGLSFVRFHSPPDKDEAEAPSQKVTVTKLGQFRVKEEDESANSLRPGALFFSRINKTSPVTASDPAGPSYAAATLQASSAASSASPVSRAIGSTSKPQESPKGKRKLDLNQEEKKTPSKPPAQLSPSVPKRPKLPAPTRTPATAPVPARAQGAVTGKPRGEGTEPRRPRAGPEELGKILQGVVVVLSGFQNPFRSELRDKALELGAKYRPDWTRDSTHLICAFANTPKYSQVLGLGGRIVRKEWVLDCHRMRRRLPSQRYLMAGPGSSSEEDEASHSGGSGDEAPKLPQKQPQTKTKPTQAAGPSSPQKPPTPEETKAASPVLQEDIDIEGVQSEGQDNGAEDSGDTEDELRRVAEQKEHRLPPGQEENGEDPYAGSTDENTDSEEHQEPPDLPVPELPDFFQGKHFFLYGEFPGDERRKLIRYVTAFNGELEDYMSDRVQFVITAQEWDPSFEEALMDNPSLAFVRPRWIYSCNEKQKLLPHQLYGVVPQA", "UniProt P09874": "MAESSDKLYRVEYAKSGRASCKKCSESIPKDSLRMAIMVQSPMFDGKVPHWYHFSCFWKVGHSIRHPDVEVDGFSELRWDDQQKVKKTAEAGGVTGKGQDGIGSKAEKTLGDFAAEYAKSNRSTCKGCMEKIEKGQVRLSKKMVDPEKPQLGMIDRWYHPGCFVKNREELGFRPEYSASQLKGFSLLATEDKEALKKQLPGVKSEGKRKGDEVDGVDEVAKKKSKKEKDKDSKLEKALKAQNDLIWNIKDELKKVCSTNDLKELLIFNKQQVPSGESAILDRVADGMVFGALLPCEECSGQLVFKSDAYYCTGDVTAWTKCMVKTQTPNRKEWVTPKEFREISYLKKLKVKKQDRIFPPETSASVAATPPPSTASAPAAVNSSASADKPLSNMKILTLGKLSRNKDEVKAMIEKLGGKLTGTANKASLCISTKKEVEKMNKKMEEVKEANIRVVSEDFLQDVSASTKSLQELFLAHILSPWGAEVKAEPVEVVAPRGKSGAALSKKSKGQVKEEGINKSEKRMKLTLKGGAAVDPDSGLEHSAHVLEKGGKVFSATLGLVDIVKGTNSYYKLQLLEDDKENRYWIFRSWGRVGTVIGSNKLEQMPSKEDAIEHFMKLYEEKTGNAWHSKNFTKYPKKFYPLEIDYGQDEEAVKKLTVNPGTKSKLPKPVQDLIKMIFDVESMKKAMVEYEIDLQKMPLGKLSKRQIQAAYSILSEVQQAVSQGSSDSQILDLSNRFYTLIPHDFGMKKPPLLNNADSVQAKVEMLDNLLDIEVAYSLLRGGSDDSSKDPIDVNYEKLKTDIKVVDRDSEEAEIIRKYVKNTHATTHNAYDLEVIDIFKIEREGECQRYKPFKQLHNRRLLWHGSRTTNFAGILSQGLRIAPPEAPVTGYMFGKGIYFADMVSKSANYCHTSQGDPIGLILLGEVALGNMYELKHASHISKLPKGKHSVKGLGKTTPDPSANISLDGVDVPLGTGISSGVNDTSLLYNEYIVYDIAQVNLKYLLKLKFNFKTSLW", "UniProt Q13426": "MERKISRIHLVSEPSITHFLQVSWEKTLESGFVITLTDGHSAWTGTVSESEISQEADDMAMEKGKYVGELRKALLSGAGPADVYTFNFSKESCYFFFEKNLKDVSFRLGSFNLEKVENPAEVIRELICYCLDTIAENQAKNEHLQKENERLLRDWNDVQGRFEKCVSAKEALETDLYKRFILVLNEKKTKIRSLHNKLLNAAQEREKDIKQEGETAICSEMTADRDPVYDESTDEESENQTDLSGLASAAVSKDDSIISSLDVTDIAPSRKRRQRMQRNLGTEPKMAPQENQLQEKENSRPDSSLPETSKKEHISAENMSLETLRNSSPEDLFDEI", "UniProt Q9NUW8": "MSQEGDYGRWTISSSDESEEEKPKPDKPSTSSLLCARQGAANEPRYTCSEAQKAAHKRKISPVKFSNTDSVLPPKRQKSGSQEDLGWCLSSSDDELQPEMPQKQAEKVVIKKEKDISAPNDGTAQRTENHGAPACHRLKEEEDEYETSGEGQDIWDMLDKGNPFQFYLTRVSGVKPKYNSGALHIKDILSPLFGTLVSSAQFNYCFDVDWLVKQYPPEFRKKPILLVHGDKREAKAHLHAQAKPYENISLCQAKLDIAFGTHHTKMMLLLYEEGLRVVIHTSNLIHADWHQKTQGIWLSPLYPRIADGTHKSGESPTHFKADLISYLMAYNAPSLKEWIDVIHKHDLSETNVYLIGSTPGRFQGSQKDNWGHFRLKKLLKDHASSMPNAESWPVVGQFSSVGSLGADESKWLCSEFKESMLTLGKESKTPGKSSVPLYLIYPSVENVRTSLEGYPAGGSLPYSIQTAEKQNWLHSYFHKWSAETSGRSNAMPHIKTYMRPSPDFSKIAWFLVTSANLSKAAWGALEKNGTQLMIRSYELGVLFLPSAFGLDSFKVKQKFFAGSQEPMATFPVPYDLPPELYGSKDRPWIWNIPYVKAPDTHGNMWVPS"}, "source": "paper PMC6134028", "key": {"[1]": {"target": "Fused in Sarcoma (FUS), endogenous (human (endogenous in SH-SY5Y and iPSC-derived motor neurons)) (UniProt P35637)", "assay": "proximity ligation; PLA of FUS vs PARP-1 in cells with or without AG-14361 (Supplementary Fig. 9b)"}, "[2]": {"target": "Fused in Sarcoma (FUS), endogenous (human (endogenous in SH-SY5Y and iPSC-derived motor neurons)) (UniProt P35637)", "assay": "co-IP; anti-FUS IP of endogenous FUS from iPSC-derived motor neurons, with or without GO, immunoblot"}, "[3]": {"target": "Fused in Sarcoma (FUS), endogenous (human (endogenous in SH-SY5Y and iPSC-derived motor neurons)) (UniProt P35637)", "assay": "co-IP; anti-FUS IP of endogenous FUS from differentiated SH-SY5Y cells, with or without GO, immunoblot"}, "Flag-FUS WT (human)": {"target": "Flag-FUS WT (human) (UniProt P35637)", "assay": "co-IP; anti-Flag IP from HEK293 cells expressing Flag-FUS, with or without GO (100 ng/ml for 1 h), immunoblot"}, "[4]": {"target": "Fused in Sarcoma (FUS), endogenous (human (endogenous in SH-SY5Y and iPSC-derived motor neurons)) (UniProt P35637)", "assay": "proximity ligation; Duolink PLA of FUS vs PARP1, XRCC1 or LigIII in iPSC-derived motor neurons, with or without GO"}, "[5]": {"target": "Fused in Sarcoma (FUS), endogenous (human (endogenous in SH-SY5Y and iPSC-derived motor neurons)) (UniProt P35637)", "assay": "proximity ligation; Duolink PLA of FUS vs PARP1, XRCC1 or LigIII in differentiated SH-SY5Y cells, with or without GO; controls with XRCC1 or LigIII siRNA"}, "[6]": {"target": "XRCC1, endogenous (human (endogenous in HEK293, SH-SY5Y, iPSCs, motor neurons, fibroblasts)) (UniProt P18887)", "assay": "co-IP; reciprocal co-IP with the XRCC1 antibody, immunoblot for FUS (Supplementary Fig. 2b)"}, "[7]": {"target": "GST-FUS aa465-526 (human) (UniProt P35637)", "assay": "pull-down; domain mapping with GST-fused FUS domain polypeptides and XRCC1 (Supplementary Fig. 3, not shown); both purified"}, "GST-FUS (human)": {"target": "GST-FUS (human) (UniProt P35637)", "assay": "pull-down; GST-FUS with the partner at 4 C overnight on glutathione affinity gel, washed three times with TEN buffer (20 mM Tris-HCl pH 7.4, 0.1 mM EDTA, 100 mM NaCl), immunoblot; for XRCC1 also in the presence of PARP-1 and NAD+ (PARylation enhanced the interaction); both purified"}, "[8]": {"target": "Fused in Sarcoma (FUS), endogenous (human (endogenous in SH-SY5Y and iPSC-derived motor neurons)) (UniProt P35637)", "assay": "co-IP; IP with a FUS antibody from extracts of cells treated with or without the PARP1 inhibitor AG-14361 (Supplementary Fig. 9a)"}, "[9]": {"target": "poly(ADP-ribose) polymerase 1 (PARP1), endogenous (human (endogenous in HEK293, SH-SY5Y, iPSCs, motor neurons, fibroblasts)) (UniProt P09874)", "assay": "co-IP; endogenous co-IP from WT or FUS mutant (R521H, P525L) patient-derived fibroblast lines, immunoblot (text: PARP1 IP; legend: XRCC1 co-IP)"}, "[10]": {"target": "poly(ADP-ribose) polymerase 1 (PARP1), endogenous (human (endogenous in HEK293, SH-SY5Y, iPSCs, motor neurons, fibroblasts)) (UniProt P09874)", "assay": "proximity ligation; PLA of PARP1 vs XRCC1 in motor neurons after GO treatment (text: FUS KD cells; legend: WT or FUS mutant patient-derived motor neurons)"}}, "note": "No constants are given. Whether binding was seen depends on the method and setting. For some of these results: Binding seen in cells or lysates may run through a third protein. Some entries that bind do so weakly or less than the wild type.", "data": [{"substance": "poly(ADP-ribose) polymerase 1 (PARP1), endogenous (from UniProt P09874 1-1014)", "values": [{"measurement": "binding", "setting": "[1]", "result": "binds"}, {"measurement": "binding", "setting": "[2]", "result": "binds"}, {"measurement": "binding", "setting": "[3]", "result": "binds"}, {"measurement": "binding", "setting": "Flag-FUS WT (human)", "result": "binds"}, {"measurement": "binding", "setting": "[4]", "result": "binds"}, {"measurement": "binding", "setting": "[5]", "result": "binds"}]}, {"substance": "Fused in Sarcoma (FUS), endogenous (from UniProt P35637 1-526)", "values": [{"measurement": "binding", "setting": "[6]", "result": "binds"}]}, {"substance": "XRCC1, purified from insect cells (from UniProt P18887 1-633)", "values": [{"measurement": "binding", "setting": "[7]", "result": "binds weakly"}, {"measurement": "binding", "setting": "GST-FUS (human)", "result": "binds"}]}, {"substance": "DNA ligase complex XRCC4/LigIV, endogenous (from UniProt Q13426 1-336; P49917 1-911)", "values": [{"measurement": "binding", "setting": "Flag-FUS WT (human)", "result": "no binding"}]}, {"substance": "XRCC1, endogenous (from UniProt P18887 1-633)", "values": [{"measurement": "binding", "setting": "[2]", "result": "binds"}, {"measurement": "binding", "setting": "[3]", "result": "binds"}, {"measurement": "binding", "setting": "Flag-FUS WT (human)", "result": "binds"}, {"measurement": "binding", "setting": "[4]", "result": "binds"}, {"measurement": "binding", "setting": "[8]", "result": "binds"}, {"measurement": "binding", "setting": "[9]", "result": "binds"}, {"measurement": "binding", "setting": "[5]", "result": "binds"}, {"measurement": "binding", "setting": "[10]", "result": "binds"}]}, {"substance": "TDP1, endogenous (from UniProt Q9NUW8 1-608) (enzyme)", "values": [{"measurement": "binding", "setting": "Flag-FUS WT (human)", "result": "no binding"}]}]}
